Laboratory results published in patent US20130034493A1 (RESEARCH DEVELOPMENT FOUNDATION, published 2013).
No constants are given. Whether binding was seen depends on the method and setting. For some of these results: In cells and extracts the contact can be indirect. Some entries that bind do so weakly or less than the wild type. Where a sequence is shown, tags or fusion partners need not be part of it.

Tests used:
recombinant BMP4 (rBMP4) [1] = target: T1, recombinant BMP4 (rBMP4) (mouse, UniProt P21275 293-408, limits assumed); experiment: ELISA and pull-down (retold)
T1 sequence (looked up): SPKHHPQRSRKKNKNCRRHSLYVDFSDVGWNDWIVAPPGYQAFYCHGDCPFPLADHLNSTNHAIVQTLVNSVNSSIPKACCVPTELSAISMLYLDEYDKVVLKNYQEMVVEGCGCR

recombinant BMP4 (rBMP4) [2] = target: T1, recombinant BMP4 (rBMP4); experiment: ELISA; co-immunoprecipitation
recombinant BMP4 (rBMP4) [3] = target: T1, recombinant BMP4 (rBMP4); experiment: ELISA with FLAG (M2) antibody (FIG. 19A); also pull-down on M2-beads (FIG. 19B)
recombinant BMP4 (rBMP4) [4] = target: T1, recombinant BMP4 (rBMP4); experiment: ELISA with FLAG (M2) antibody (FIG. 7A); also pull-down on M2 beads, silver-stained gel (FIG. 7B)

Measured: binding

B1: mouse recombinant Olfml3-FLAG tagged protein (rOlfml3-FLAG) (other, not shown: small tags and cut ends)
chain: QQHHLVEYMERRLAALEERLAQCQDQSSRHAAELRDFKNKMLPLLEVAEKERETLRTEADSISGRVDRLEREVDYLETQNPALPCVELDEKVTGGPGAKGKGRRNEKYDMVTDCSYTVAQVRSMKILKRFGGSVGLWTKDPLGPAEKIYVLDGTQNDTAFVFPRLRDFTLAMAARKASRIRVPFPWVGTGQLVYGGFLYYARRPPGGPGGGGELENTLQLIKFHLANRTVVDSSVFPAESLIPPYGLTADTYIDLAADEEGLWAVYATRDDDRHLCLAKLDPQTLDTEQQWDTPCPRENAEAAFVICGTLYVVYNTRPASRARIQCSFDASGTLAPERAALSYFPRRYGAHASLRYNPRERQLYAWDDGYQIVYKLEMKKKEEEV
binds: all assays above
